# Small-molecule microarray binding calls

Source: the ROBIN nucleic acid binder screens (doi:10.1002/anie.202211358).

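Each compound is printed as two spots on a slide made to bind it covalently, so it has no test concentration; the read-out is fluorescence of the bound, labelled oligonucleotide. The data file lists only calls. An earlier report of the laboratory on the PreQ1, TPP and SAM-II riboswitches (doi:10.1038/s41467-019-09493-3) used 1 µM RNA for 2 h and required a mean Z-score above 3 (spot signal-to-noise against the whole library), a score well above that on a control array, and duplicate spots agreeing (coefficient of variation under 100); it then also set aside compounds that hit other targets, which this list keeps. The cut-offs behind this list may differ. These are primary screening calls, not affinities; a compound without a hit may have attached poorly or may still bind in solution.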
“active” means called a hit, “inactive” means screened and not called a hit.
Compounds were drawn at random from those tested, without regard to their results.
A target missing from an entry has no call listed here.
A dash means that no call is listed here.

Targets (5′ to 3′):
T1: PreQ1 riboswitch RNA pseudoknot, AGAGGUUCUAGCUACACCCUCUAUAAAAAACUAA. From B. subtilis. About 170 hits among about 24,000 compounds.
T2: SAM-II riboswitch RNA pseudoknot, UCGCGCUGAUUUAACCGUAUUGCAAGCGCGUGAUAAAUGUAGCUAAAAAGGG. About 200 hits among about 21,000 compounds.
T3: TPP riboswitch RNA three-way junction, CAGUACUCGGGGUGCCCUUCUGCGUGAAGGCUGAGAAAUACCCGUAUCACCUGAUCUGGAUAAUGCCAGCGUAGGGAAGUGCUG. About 160 hits among about 24,000 compounds.

With O=C1CCC(N2C(=O)c3ccccc3C2=O)C(=O)N1 (centres undefined) the screen gave T1: inactive; T2: inactive; T3: inactive. With Cc1[nH]c(NC(=N)N(C)C)nc(=O)c1C the screen gave T1: inactive; T2: inactive; T3: inactive. For OCc1ccccc1Oc1ccc(CN2CCCC2)cc1F the calls were T1: inactive; T2: inactive; T3: inactive. For COC(=O)c1cc(NC2c3ccccc3C(=O)N2Cc2ccccc2Cl)cc(C(=O)OC)c1 (centres undefined) the calls were T1: inactive; T2: inactive; T3: inactive. With CCc1ccc(C2C(C#N)=C(N)OC3=C2S(=O)(=O)N(Cc2cccc(C)c2)c2ccccc23)cc1 (centres undefined) the screen gave T1: inactive; T3: inactive. CC1(C)Cc2c(sc(NC(=S)NC(=O)c3ccccc3)c2C(=O)O)CO1 was scored T1: inactive; T2: inactive; T3: inactive.

With CCn1cc(C(=O)O)c(=O)c2cc(F)c(N3CCN(C)CC3)cc21 the screen gave T1: inactive; T2: inactive; T3: inactive. For COc1cccc(Nc2c(S(=O)(=O)c3ccc(Cl)cc3)cnc3ccccc23)c1 the calls were T1: inactive; T3: inactive. For Cc1cc(C)n(-c2ccccc2N)n1 the calls were T1: inactive; T2: inactive; T3: inactive. Calls for Cc1ccc(N(CC(O)Cn2nc(C)cc2C)S(=O)(=O)c2ccc3ccccc3c2)cc1 (centres undefined) are T1: inactive; T2: inactive; T3: inactive. For O=C(O)CNc1ncnc2[nH]cnc12 the calls were T1: inactive; T2: inactive; T3: inactive. CN1CCN(C2=NCCO2)CC1 was scored T1: inactive; T2: inactive; T3: inactive.

COc1ccc(C2C(C#N)=C(N)OC3=C2C(=O)CCC3)cc1 (centres undefined) was scored T1: inactive; T2: inactive; T3: inactive. COc1ccc(-c2cc3nc(C)cc(N4CCN(CCO)CC4)n3n2)cc1OC was scored T1: inactive; T3: inactive. With CC(O)CNS(=O)(=O)c1ccc(C(=O)N2CCC3(CCCC3)C2)cc1 (centres undefined) the screen gave T1: inactive; T2: inactive; T3: inactive. For Cc1nn(-c2nc(CC(=O)N(C)CCO)cs2)c(C)c1Cl the calls were T1: inactive; T3: inactive. For CCOC(=O)c1sc(SCC)nc1N the calls were T1: inactive; T2: inactive; T3: inactive. Calls for CCOc1ccccc1-c1cnc(N)nc1 are T1: inactive; T2: inactive; T3: inactive.

CCCC1(CO)CCCN(C(=O)c2n[nH]c3c2CCCC3)C1 (centres undefined) was scored T1: inactive; T2: inactive; T3: inactive. O=C1CCC2(CCNCC2)CN1CCCOc1cccnc1 was scored T1: inactive; T2: inactive; T3: inactive. CN(C)c1ccc(C2Nc3ccc4ccccc4c3C3=C2C(=O)CC(C)(C)C3)cc1Br (centres undefined) was scored T1: inactive; T2: inactive; T3: inactive. With Cc1cc(NCCCN(C)C)n2nc(C(F)(F)F)c(-c3ccc(Cl)cc3)c2n1 the screen gave T1: inactive; T3: inactive. Calls for C=CCN1C(=O)C2(C(C(=O)OCC)=C(N)Oc3c2c(=O)oc2ccccc32)c2ccccc21 (centres undefined) are T1: inactive; T2: inactive; T3: inactive. With CC1CN(c2ccccc2Cl)C(=O)CN1C(=O)c1ccnc(N)c1 (centres undefined) the screen gave T1: inactive; T2: inactive; T3: inactive.

With O=S(=O)(NC1CCCCC1Nc1ccc(F)cc1)c1ccc(Cl)cc1 (centres undefined) the screen gave T1: inactive; T3: inactive. For c1ccc(-c2cn3ccccc3n2)cc1 the calls were T1: inactive; T2: inactive; T3: inactive. Cc1cc(NCCCN(C)C)n2nc(-c3ccccc3)c(C)c2n1 was scored T1: inactive; T3: inactive. Calls for N#CC1=C(N)Oc2[nH]c(=O)[nH]c(=O)c2C1c1ccccc1 (centres undefined) are T1: inactive; T2: inactive; T3: inactive. Calls for Nc1c(C(=O)Nc2ccc(F)cc2)c2ccccn2c1C(=O)c1ccc(F)cc1 are T1: inactive; T2: inactive; T3: inactive. Cc1ccnc(-n2cccc2-c2cc(-c3cn(C)nc3C)nc(N)c2C#N)c1 was scored T1: inactive; T2: inactive; T3: inactive.

For O=C(c1cc2n(n1)CCN(Cc1ccccc1)C2)N1CCCCC1CCO (centres undefined) the calls were T1: inactive; T2: inactive; T3: inactive. Calls for Cc1cc2ncn(CC(O)COC3CCCCC3)c2cc1C (centres undefined) are T1: inactive; T2: inactive; T3: inactive. Calls for CCn1c(N)nc2cc(C(=O)NCc3ccc(C(=O)NC)o3)cnc21 are T1: inactive; T2: inactive; T3: inactive. Nc1c(-c2nc(-c3ccccc3)no2)nnn1-c1cccc(C(F)(F)F)c1 was scored T1: inactive; T3: inactive. CN(CC1CCN(CCc2cccc(F)c2)CC1)C(=O)[C@@H](N)Cc1c[nH]cn1 was scored T1: inactive; T2: inactive; T3: inactive. Calls for O=C(O)CN1CCC(Cc2ccc(CO)cc2)C1 (centres undefined) are T1: inactive; T2: inactive; T3: inactive.

CCCCNc1oc(-c2ccc(S(=O)(=O)N(CC)CC)cc2)nc1C#N was scored T1: inactive; T3: inactive. OC[C@@]12CCC[C@@H]1CN(Cc1cc(O)c3cc(F)ccc3n1)C2 was scored T1: inactive; T2: inactive; T3: inactive. For CCOc1ccc(Nc2oc(C=Cc3cccs3)nc2C#N)cc1 the calls were T1: inactive; T3: inactive. With CCCCOc1ccc(C)cc1-c1nc2c([nH]1)CCNC2 the screen gave T1: inactive; T2: inactive; T3: inactive. For CC(C)N1CCC(CNC(=O)CN2CCNCC2)C1 (centres undefined) the calls were T1: inactive; T2: inactive; T3: inactive.

5 of the entries, repeated:

compound	T1	T2	T3
COc1ccc(C2C(C#N)=C(N)OC3=C2C(=O)CCC3)cc1 (centres undefined)	inactive	inactive	inactive
Nc1c(-c2nc(-c3ccccc3)no2)nnn1-c1cccc(C(F)(F)F)c1	inactive	-	inactive
COc1ccc(-c2cc3nc(C)cc(N4CCN(CCO)CC4)n3n2)cc1OC	inactive	-	inactive
CC(O)CNS(=O)(=O)c1ccc(C(=O)N2CCC3(CCCC3)C2)cc1 (centres undefined)	inactive	inactive	inactive
CCn1cc(C(=O)O)c(=O)c2cc(F)c(N3CCN(C)CC3)cc21	inactive	inactive	inactive